In US20090317477A1, “COMBINATION OF DEHYDROEPIANDROSTERONE OR DEHYDROEPIANDROSTERONE-SULFATE WITH A GLUCOCORTICOSTEROID FOR TREATMENT OF ASTHMA, CHRONIC OBSTRUCTIVE PULMONARY DISEASE OR ALLERGIC RHINITIS” (priority 2004, published 2009):
At least one compound was matched to its structure with a doubt left.

Test system: LPS-induced secretion of TNFα from PBMC
Test: LPS-induced secretion of TNFα from PBMC
Format: cell-based, human
Settings: 1, 10 and 100 nM
Description: Thereafter, 1 μg/ml LPS was added to induce the cytokine secretion and the mixture was incubated for 24 h at 37° C. For basal control measurements, LPS was omitted from the incubation medium. Following incubation, the samples were centrifuged at 250× g for 5 min at 4° C. and the supernatants were collected.
The amount of secreted TNF-α present in the supernatant was quantified using an EIA detection kit (R&D systems). The photometric measurements were made with a microplate reader (Ultra, Tecan).
The results are expressed as a percent inhibition of the control secretion induced by LPS in Table 16.

C[C@@H]1C[C@H]2[C@@H]3CCC4=CC(=O)C=C[C@]4(C)[C@@]3(F)[C@@H](O)C[C@]2(C)[C@@]1(O)C(=O)CO [Dexamethasone]
inhibition of TNFα secretion: concentration dependent inhibition of TNFα secretion
